In PubChem BioAssay AID504467 (National Center for Advancing Translational Sciences (NCATS), 2011):
Hit rate of the full screen: of about 330,000 compounds, about 7,700 (2.3%) were called active. The inconclusive results got no clear call from the source; some entries with a clear call stand among them for comparison. Calls follow the shape of the dose curve; as a rule, active = well fitted inhibition curve with a large enough effect; inconclusive = small, poorly fitted or top-dose-only effect, or effect the other way; inactive = flat fitted curve, though single readings scatter. Potencies of inconclusive entries are doubtful fits and often do not repeat.

assay: qHTS screen for small molecules that inhibit ELG1-dependent DNA repair in human embryonic kidney (HEK293T) cells expressing luciferase-tagged ELG1; settings: HEK293T ELG1-luciferase reporter, luminescence, 16 h, DNA damage induced by 5-fluorouridine; series mostly up to 46.1 µM; also: nearly all actives have a fitted effect of over 55% in size
How it was run: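 Reporter activity after DNA damage by 5-fluorouridine is monitored. Compound-treated cells incubate 16 hr at 37 °C, then ONE-Glo is added for 30 min before luminescence reading.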
Potency is read from the fitted curve at half-maximal effect.

| SMILES | Potency |
| --- | --- |
| COc1ccc(C(=O)NCC2(c3ccccc3)CCCC2)c(OC)c1 | inactive |
| C[C@@H]1CN([C@H](C)CO)C(=O)Cc2cc(NC(=O)Nc3ccccc3)ccc2O[C@@H]1CN(C)Cc1ccc2c(c1)OCO2 | active: 16.4 µM |
| O=S(=O)(c1cccc(C(F)(F)F)c1)N1CCN(C(=S)NCc2ccco2)CC1 | inactive |
| C[C@H](CO)N1C[C@H](C)[C@@H](CN(C)Cc2ccc(-c3ccccc3)cc2)Oc2c(NS(=O)(=O)c3cccs3)cccc2C1=O | inactive |
| CC(C)(C)OC(=O)NCc1ccc(CNC(=O)c2[nH]cnc2C(=O)N[C@@H](Cc2ccccc2)C(=O)OC(C)(C)C)cc1 | inconclusive: 23.1 µM [inhibitor, partial curve, poor fit] |
| O=C(c1ccc(COc2ccc(Cl)cc2Cl)o1)N1CCCC1 | inconclusive: 20.6 µM [activator, single point] |
| C[C@@H]1[C@H](O)C[C@@]23COC(=O)C2=CCCC3[C@@]1(C)CCC1COC(=O)C1 (stereo not given in full) | inactive |
| COc1ccc(/C=N/Nc2nc3ccccc3c(=O)[nH]2)cc1 | inconclusive: 9.2 µM [activator, partial curve] |
| CCOc1ccc(-n2c(SCC(=O)OC)nc3sc4c(c3c2=O)CCN(C)C4)cc1 | inactive |
| CCc1ccc(CCC(=O)Nc2nnc(CC)s2)o1 | inactive |
| CCCCN(C(=O)CSc1nnc(-c2ccccc2OC)n1C)c1c(N)n(Cc2ccccc2)c(=O)[nH]c1=O | inconclusive: 25.9 µM [inhibitor, single point] |
| CCOc1ccc(NC(=O)c2cc(OC)nc3ccccc23)cc1 | inconclusive: 20.6 µM [activator, partial curve, poor fit] |
| CN(C)CCN(C(=O)C1CCN(S(=O)(=O)c2cccs2)CC1)c1nc2ccc(F)cc2s1 | inconclusive: 10.3 µM [activator, single point] |
| COc1ccc(CNC(=O)CCSc2nc(-c3ccc4c(c3)OCO4)cc(C(F)(F)F)n2)cc1 | active: 3.26 µM |
| O=C(NCc1ccco1)c1cc2ccccc2o1 | inconclusive: 18.4 µM [activator, partial curve] |
| CCCCCCCNC(=O)C1(CC2CC(c3ccc(Cl)cc3)=NO2)CCN(C(=O)Cc2ccc(F)cc2)CC1 (stereo not given) | inconclusive: 0.366 µM [inhibitor, partial curve, poor fit] |
| COc1ccccc1C(=O)NNC(=O)c1cccc(C)c1 | inconclusive: 18.3 µM [activator, partial curve] |
| O=C(OCC(=O)N1CCN(C(=O)c2ccco2)CC1)c1cc(-c2ccc(Cl)c(Cl)c2Cl)nc2ccccc12 | inconclusive: 23.1 µM [inhibitor, single point] |
| Cc1cc(NC(=O)c2ccc3c(c2)OCCO3)ccc1NC(=O)c1cc2ccccc2o1 | inconclusive: 29.1 µM [inhibitor, single point] |
| COC(=O)c1ccc(C2c3c(oc4ccccc4c3=O)C(=O)N2CCCN2CCOCC2)cc1 (stereo not given) | inactive |
| COc1ccc2c(c1)Cc1sc(NC(C)=O)nc1-2 | inconclusive: 2.82 µM [activator, full curve] |
| Brc1ccc(C=Nc2ccc3c(c2)OCCOCCOCCO3)s1 | inconclusive: 29.1 µM [activator, single point] |
| CC(C)(C)c1ccc(S(=O)(=O)NNC(=O)c2cc3ccccc3[nH]2)cc1 | inconclusive: 16.4 µM [activator, partial curve] |
| Cc1c(S(=O)(=O)c2ccccn2)c(N)n(Cc2ccccc2Cl)c1C | inconclusive: 14.6 µM [inhibitor, partial curve] |

| SMILES | Potency |
| --- | --- |
| Cc1ccc(N=C2NC(=O)/C(=C/c3cccn3C)S2)cc1 | inconclusive: 2.06 µM [activator, full curve] |
| CCOC(=O)c1ccc(N=c2sc(C(=O)OC)cc(=O)n2CCCN2CCOCC2)cc1 | inconclusive: 23.1 µM [inhibitor, partial curve] |
| O=C(/C=C/c1ccc(S(=O)(=O)NCc2ccco2)cc1)NCc1ccccc1Cl | inactive |
| O=C(C[n+]1cc(-c2ccccc2)n2c1CCC2)c1cccs1 | inconclusive: 29.1 µM [inhibitor, single point] |
| CCc1ccc2[nH]c(=O)c(CN(Cc3ccc4c(c3)OCO4)Cc3nnnn3C3CCCC3)cc2c1 | inconclusive: 15.8 µM [inhibitor, single point] |
| CCOC(=O)C1CCN(C2=NC(=O)/C(=C/c3ccc(Cl)cc3)S2)CC1 | inactive |
| CN(C)S(=O)(=O)c1ccc(Cl)c(NC(=O)CSc2nc3ccccc3c(=O)n2CCCN2CCOCC2)c1 | inconclusive: 16.4 µM [inhibitor, partial curve] |
| CS(=O)(=O)Nc1ccc(C(=O)NCCSCc2ccccc2)cc1 | inactive |
| COc1ccc(C2=C(N)c3ccccc3C2=O)cc1 | inconclusive: 0.517 µM [activator, full curve, poor fit] |
| Cc1c(C(=O)Nc2ccc3nc(N4CCOCC4)sc3c2)oc2ccccc12 | active: 11.2 µM |
| COc1cccc(-c2nnc(NC(=O)Cc3cccs3)s2)c1 | inconclusive: 8.2 µM [activator, partial curve] |
| Cc1nn(-c2ccc(C(=O)O)cc2)c(=O)c2ccccc12 | inconclusive: 29.1 µM [activator, single point] |
| COc1ccc(CNCc2ccncc2)cc1OC | inconclusive: 2.06 µM [activator, partial curve] |
| COC(=O)[C@@H]1CCCN1C(=O)c1ccc(OC2CCN(Cc3ccccn3)CC2)cc1 | inconclusive: 11.6 µM [activator, partial curve, poor fit] |
| FC(F)Oc1ccc(/C=N/NC(=S)Nc2cc(C(F)(F)F)ccc2Cl)cc1 | inactive |
| CCOC(=O)c1ccc(OCC2NCCc3cc(OC)c(OC)cc32)cc1 (stereo not given) | inactive |
| O=C(CC1NCCc2ccccc21)Nc1ccccc1 (stereo not given) | inconclusive: 23.1 µM [activator, single point] |
| CC(C)CCNc1ncnc2c1cnn2Cc1ccccc1Cl | inconclusive: 29.1 µM [inhibitor, single point] |
| COc1ccc2c(c1)C(=O)N1[C@H]3c4cc(Br)ccc4OC[C@@H]3[C@H](c3ccccc3)[C@]1(C)C(=O)N2 | inconclusive: 28.2 µM [inhibitor, single point] |
| CN1CCN(S(=O)(=O)c2cccs2)CC1 | inactive |
| CC(=O)N1c2ccccc2C2CCCC[C@@H]21 (stereo not given in full) | inconclusive: 16.4 µM [activator, partial curve, poor fit] |
| CCOC(=O)CSc1ccc(C(=O)NCCCN2CCOCC2)cc1[N+](=O)[O-] | inactive |
| CCN1CCN(CCCNC(=O)c2cc3sccc3n2CC)CC1 | inactive |
| COC(=O)c1cc(=O)n(CCc2ccc(OC)cc2)c(=Nc2ccc(F)c(Cl)c2)s1 | inconclusive: 13 µM [inhibitor, partial curve] |

| SMILES | Potency |
| --- | --- |
| CC(=O)NCCc1cc2ccc(C)c(C)c2[nH]c1=O | inconclusive: 11.6 µM [activator, partial curve, poor fit] |
| Cc1cccc(C(=O)Nc2sc3c(c2C#N)CCCCC3)c1 | inconclusive: 1.84 µM [activator, partial curve] |
| Cc1cc(C(=O)N2CCN(c3ccc(C(F)(F)F)cn3)CC2)c(C)o1 | inconclusive: 20.6 µM [inhibitor, partial curve, poor fit] |
| Cc1ccc2[nH]c(=O)c(NC(N)=S)nc2c1 | inactive |
| O=C(NCc1nc(-c2ccc(C(F)(F)F)cc2)no1)Nc1ccc(OC(F)(F)F)cc1 | inactive |
| COc1ccc(OCCCC(=O)OCC(=O)Nc2nnc(-c3ccccc3)o2)cc1 | inactive |
| O=C(Nc1cnc2ccccc2c1)c1cccnc1 | inconclusive: 3.66 µM [activator, full curve] |
| O=C(Nc1ccc(N2CCOCC2)cc1)NC1CCCCC1 | inconclusive: 18.4 µM [activator, partial curve] |
| O=C(N/N=C\c1cccc([N+](=O)[O-])c1O)C1COc2ccccc2O1 (stereo not given) | inactive |
| Cc1ccc(N(CC(=O)NCC(O)c2ccccc2)S(=O)(=O)c2ccc(C)cc2)cc1 (stereo not given) | inactive |
| Nc1nc(CN2CCN(c3ccccn3)CC2)nc(Nc2ccc(Cl)cc2)n1 | inconclusive: 29.1 µM [inhibitor, single point] |
| Cc1cccc(COc2ncnc3nc[nH]c23)c1 | inconclusive: 20.6 µM [activator, single point] |
| Cc1ccccc1-n1c(O)c(C=NC2CCS(=O)(=O)C2)c2ccccc2c1=O (stereo not given) | inactive |
| CCNc1nc(NC(N)=S)nc(NC(C)(C)C)n1 | inactive |
| O=C(COC(=O)C1CCCCC1)Nc1cccc(Br)c1 | inactive |
| O=C1NCCCC2c3c(cc(Br)c(O)c3Br)OC12N1CCCCC1 (stereo not given) | inactive |
| O=C1CC(SCc2nc3ccccc3[nH]2)C(=O)N1c1ccc(Cl)cc1 (stereo not given) | inactive |
| COc1ccc(S(=O)(=O)N(C)C)cc1NC(=O)c1ccc(OCC(=O)N2CCOCC2)c(OC)c1 | inconclusive: 4.11 µM [inhibitor, single point] |
| Cc1coc2c1C(=O)C(=O)c1c-2ccc2c(C)cccc12 | inconclusive: 29.1 µM [inhibitor, single point] |
| COc1cc(C2C(C#N)=C(N)Oc3cc(N)ccc32)cc(OC)c1OC (stereo not given) | inconclusive: 9.2 µM [activator, partial curve, poor fit] |
| Cc1ccc(C)c(N2CCN(CCCNC(=O)Cn3cccc3C(=O)c3ccccc3)CC2)c1 | inconclusive: 29.1 µM [inhibitor, single point] |
| O=C(Cn1ncc2c([nH]c3ccccc32)c1=O)Nc1ccc(CN2CCCCC2)cc1 | inactive |
